Reference: US20230227838A1, “ENHANCED CELL SURVIVAL AGAINST BIOTIC AND ABIOTIC STRESSES THROUGH SALICYLICK ACID-INDUCED NPR1 CONDENSATES” (priority 2020, published 2023)
Results are given in words; binding and its absence hold for the method and conditions named. In cells and extracts the contact can be indirect. Some binding calls cover weakened binding; strength is not graded here. For some of these results: Where a sequence is shown, tags or fusion partners need not be part of it.

Chains of the proteins cited; added tags and fusions are not shown. Lines headed by an entry give the natural chain unless they say otherwise; changes in a name come on top.
UniProt P93002: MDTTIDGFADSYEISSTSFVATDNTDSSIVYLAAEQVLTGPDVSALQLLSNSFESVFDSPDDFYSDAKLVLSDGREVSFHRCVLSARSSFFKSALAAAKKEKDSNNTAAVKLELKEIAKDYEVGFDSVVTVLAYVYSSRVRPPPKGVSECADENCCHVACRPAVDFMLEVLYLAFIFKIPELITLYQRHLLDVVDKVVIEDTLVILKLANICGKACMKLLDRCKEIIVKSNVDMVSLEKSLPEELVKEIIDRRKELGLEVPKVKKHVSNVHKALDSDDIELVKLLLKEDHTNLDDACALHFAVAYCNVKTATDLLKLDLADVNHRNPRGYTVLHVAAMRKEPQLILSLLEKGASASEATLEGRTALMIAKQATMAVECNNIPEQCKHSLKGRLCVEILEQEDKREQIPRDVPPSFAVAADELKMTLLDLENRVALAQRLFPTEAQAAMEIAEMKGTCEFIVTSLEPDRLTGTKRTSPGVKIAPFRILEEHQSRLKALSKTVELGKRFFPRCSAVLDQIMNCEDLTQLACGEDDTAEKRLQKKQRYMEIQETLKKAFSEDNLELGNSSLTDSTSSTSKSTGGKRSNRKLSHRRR

How the values were obtained:
[1] = biological target: T1, Myc-CUL3 (Arabidopsis thaliana, UniProt Q9ZVH4 1-732); assay: co-IP, N. benthamiana
T1 construct: also called AtCUL3A (AT1G26830); not shown: N-terminal Myc tag (pEG203)
T1 sequence (looked up): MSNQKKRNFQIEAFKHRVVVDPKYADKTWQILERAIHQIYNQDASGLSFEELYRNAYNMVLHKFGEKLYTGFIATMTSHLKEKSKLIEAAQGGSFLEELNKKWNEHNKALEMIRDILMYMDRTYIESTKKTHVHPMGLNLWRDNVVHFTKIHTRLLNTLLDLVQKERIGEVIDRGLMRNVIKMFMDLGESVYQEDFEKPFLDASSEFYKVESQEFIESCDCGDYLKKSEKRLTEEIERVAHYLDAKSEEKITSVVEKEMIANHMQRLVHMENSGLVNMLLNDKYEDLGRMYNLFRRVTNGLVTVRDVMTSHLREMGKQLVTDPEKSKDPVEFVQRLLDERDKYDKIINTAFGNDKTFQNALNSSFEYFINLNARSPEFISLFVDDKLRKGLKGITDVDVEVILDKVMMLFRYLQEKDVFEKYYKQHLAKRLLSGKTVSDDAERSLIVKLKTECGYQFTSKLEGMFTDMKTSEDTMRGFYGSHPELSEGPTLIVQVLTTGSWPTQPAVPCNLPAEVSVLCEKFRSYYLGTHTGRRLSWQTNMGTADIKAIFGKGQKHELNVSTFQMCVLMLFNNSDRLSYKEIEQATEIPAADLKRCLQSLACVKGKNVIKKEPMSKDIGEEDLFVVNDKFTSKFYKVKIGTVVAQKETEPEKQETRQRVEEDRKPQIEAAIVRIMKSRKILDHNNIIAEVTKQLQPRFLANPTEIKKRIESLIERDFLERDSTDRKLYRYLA

[2] = biological target: BTB-HA (Arabidopsis thaliana) (UniProt P93002); assay: co-IP, co-expression in N. benthamiana
[3] = biological target: T1, Myc-CUL3; assay: GST pull-down, co-expression in E. coli
[4] = biological target: T2, endogenous CUL3 in Arabidopsis (Arabidopsis thaliana) (UniProt Q9ZVH4); assay: co-IP from transgenic Arabidopsis
T2 sequence (looked up): T1 sequence (looked up)

[5] = biological target: T1, Myc-CUL3; assay: co-IP, N. benthamiana, 1 mM SA
[6] = biological target: T2, endogenous CUL3 in Arabidopsis (Arabidopsis thaliana); assay: co-IP from transgenic Arabidopsis (FIG. 4B)

Substance: BTB-HA (from UniProt P93002 65-144)
- binding [1]: binds

Substance: CTD-GFP (from UniProt P93002 365-593)
- binding [2]: binds

Substance: GST-NPR1 (from UniProt P93002 1-593)
- binding [3]: binds

Substance: NPR1-GFP (from UniProt P93002 1-593)
- binding [4]: binds

Substance: nls-HA (from UniProt P93002 1-593)
- binding [5]: binds

Substance: sim3-GFP (from UniProt P93002 1-593)
- binding [6]: binds

Substance: ΔCTD-HA (from UniProt P93002 1-364)
- binding [1]: binds
